This is one part of the list.
Tests used:
Assay in all cases: log2 fold change, soluble protein after heating vs DMSO (PISA); higher = thermal stabilisation; K562 cells, 10 uM, 30 min; active = over 0.2 and 3.5 SD of the protein, either way, in both replicates (recomputed)
[1] = compound: CC1=C(C=C(C=C1)NC(=O)C2=CC(=CC=C2)C(C)(C)C#N)NC3=CC4=C(C=C3)N=CN(C4=O)C
Summary of the method: (§1)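 Soluble protein was defined as the supernatant after 21,000xg for 90 min. It came from K562 cells at 2×10^6 cells/mL given 10 μM compound for 30 min, heated in aliquots for 3 min across 48°C-58°C, pooled, and extracted in PBS with 0.5% NP-40 at 4°C, and was quantified by TMTpro 16plex LC-MS/MS with equalised channel sums. Thermal stability against control samples, from duplicates, is reported as log2 fold change.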

Protein sequences, listed by entry. Tags and fused reporters are not part of them. Lines headed by an entry give the natural chain unless they say otherwise; changes in a name come on top.
UniProt P55884, whole entry, looked up: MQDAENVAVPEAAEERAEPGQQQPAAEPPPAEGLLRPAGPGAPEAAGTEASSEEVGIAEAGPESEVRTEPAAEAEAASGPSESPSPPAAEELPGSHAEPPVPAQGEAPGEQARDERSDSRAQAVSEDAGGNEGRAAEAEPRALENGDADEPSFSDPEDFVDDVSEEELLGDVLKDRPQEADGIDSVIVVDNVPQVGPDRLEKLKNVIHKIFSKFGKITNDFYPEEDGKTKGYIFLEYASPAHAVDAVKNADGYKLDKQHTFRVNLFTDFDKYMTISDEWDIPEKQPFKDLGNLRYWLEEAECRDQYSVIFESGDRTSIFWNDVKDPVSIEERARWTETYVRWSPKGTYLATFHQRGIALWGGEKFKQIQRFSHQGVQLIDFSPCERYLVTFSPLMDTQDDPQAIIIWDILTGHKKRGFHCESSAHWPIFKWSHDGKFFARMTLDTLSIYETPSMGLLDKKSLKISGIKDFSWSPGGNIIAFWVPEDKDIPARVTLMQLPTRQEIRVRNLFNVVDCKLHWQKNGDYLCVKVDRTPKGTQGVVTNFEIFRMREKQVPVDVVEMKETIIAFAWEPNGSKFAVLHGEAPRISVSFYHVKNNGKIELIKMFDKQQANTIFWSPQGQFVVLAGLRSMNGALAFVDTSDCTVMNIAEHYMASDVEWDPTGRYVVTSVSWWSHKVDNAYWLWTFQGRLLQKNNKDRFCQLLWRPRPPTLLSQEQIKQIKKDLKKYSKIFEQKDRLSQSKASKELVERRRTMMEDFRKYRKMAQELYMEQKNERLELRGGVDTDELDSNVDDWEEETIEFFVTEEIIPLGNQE
UniProt Q9NZN4: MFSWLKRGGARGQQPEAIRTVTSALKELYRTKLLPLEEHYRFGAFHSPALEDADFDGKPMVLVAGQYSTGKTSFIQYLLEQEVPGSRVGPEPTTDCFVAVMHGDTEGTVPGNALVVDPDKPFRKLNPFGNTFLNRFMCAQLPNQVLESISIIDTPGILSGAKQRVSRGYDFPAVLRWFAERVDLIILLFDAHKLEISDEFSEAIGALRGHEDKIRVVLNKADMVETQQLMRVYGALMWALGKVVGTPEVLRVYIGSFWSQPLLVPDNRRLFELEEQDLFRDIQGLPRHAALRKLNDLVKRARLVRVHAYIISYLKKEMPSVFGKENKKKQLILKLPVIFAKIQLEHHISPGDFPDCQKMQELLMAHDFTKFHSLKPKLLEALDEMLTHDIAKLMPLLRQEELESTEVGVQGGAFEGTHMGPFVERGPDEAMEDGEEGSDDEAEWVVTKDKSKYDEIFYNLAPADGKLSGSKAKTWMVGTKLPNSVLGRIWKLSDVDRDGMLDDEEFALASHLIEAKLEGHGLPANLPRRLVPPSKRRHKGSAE
UniProt Q0PNE2: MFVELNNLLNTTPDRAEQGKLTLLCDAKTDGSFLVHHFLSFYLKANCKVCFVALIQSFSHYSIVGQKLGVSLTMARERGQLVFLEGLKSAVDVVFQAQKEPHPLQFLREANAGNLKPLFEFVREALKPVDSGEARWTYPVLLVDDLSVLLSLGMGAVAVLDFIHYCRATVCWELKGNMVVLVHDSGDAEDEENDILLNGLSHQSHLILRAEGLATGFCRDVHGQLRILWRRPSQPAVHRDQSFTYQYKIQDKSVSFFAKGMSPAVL
UniProt Q9UHY7: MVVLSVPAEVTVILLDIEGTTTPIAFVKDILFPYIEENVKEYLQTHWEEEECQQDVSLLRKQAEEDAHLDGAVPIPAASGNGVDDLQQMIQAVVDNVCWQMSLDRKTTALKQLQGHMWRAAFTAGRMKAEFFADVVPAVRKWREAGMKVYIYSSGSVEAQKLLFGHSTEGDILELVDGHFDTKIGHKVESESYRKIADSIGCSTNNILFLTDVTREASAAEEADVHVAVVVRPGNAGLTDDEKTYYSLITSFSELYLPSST
UniProt Q7L2H7, whole entry, looked up: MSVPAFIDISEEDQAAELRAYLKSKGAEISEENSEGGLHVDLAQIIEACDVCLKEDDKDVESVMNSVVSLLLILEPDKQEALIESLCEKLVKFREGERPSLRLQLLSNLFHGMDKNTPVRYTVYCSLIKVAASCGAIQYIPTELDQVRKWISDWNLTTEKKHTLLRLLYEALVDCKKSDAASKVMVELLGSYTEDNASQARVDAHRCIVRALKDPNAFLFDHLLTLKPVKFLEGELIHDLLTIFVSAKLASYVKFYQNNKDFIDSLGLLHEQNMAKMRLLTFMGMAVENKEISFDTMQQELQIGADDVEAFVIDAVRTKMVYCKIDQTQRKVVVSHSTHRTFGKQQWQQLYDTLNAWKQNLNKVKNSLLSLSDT
UniProt Q14249: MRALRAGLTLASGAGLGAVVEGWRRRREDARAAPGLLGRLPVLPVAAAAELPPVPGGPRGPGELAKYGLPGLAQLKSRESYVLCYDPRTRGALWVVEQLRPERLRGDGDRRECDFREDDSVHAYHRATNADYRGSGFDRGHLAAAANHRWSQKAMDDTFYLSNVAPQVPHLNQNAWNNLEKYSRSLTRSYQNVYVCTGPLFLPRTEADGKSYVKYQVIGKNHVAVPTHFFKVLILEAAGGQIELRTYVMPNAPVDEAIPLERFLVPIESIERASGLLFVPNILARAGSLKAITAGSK
UniProt Q15029: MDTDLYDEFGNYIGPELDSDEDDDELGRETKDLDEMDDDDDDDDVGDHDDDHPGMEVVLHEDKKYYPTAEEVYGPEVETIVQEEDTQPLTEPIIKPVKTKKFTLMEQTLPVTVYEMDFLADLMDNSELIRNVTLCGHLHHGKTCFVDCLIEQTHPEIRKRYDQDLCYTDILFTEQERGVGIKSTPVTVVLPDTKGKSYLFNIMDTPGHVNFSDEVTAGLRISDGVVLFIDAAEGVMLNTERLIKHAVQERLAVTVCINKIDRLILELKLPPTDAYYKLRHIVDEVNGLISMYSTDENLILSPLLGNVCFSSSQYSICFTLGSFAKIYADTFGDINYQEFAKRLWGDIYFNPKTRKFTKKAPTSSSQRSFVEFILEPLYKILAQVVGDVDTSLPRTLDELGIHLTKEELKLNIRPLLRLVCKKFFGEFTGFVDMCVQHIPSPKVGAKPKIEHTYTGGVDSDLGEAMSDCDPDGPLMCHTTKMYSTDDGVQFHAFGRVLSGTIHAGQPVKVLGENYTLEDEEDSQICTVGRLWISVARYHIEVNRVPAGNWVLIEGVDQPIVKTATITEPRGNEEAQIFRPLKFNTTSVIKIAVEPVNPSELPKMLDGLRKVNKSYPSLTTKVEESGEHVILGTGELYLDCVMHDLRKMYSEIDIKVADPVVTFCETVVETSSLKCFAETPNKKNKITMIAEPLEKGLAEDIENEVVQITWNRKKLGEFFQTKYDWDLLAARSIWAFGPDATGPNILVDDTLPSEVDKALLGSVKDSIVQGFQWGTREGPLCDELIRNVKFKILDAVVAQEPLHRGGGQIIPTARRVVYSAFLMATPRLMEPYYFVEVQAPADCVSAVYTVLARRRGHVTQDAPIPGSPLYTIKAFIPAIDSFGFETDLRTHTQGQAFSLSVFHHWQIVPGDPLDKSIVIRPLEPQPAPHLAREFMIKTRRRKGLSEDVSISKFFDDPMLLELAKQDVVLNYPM
UniProt Q13347, whole entry, looked up: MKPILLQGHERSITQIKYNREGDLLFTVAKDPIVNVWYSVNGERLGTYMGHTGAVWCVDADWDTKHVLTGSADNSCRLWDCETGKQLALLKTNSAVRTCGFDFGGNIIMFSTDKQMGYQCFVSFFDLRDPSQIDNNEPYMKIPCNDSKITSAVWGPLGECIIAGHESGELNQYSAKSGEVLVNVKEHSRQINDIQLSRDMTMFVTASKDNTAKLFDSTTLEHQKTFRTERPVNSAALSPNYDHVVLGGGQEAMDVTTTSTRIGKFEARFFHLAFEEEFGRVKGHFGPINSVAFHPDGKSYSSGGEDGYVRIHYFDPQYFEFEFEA
UniProt O00303, whole entry, looked up: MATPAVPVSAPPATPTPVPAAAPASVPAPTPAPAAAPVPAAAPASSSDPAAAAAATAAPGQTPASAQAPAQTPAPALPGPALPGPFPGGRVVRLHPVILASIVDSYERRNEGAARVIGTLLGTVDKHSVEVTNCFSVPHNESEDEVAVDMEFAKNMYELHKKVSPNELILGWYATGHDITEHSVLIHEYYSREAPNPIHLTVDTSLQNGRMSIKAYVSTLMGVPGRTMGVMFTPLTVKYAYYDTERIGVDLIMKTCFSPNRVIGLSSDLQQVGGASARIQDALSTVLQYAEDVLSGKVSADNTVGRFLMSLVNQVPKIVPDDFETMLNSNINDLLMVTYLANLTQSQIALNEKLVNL
UniProt Q14232, whole entry, looked up: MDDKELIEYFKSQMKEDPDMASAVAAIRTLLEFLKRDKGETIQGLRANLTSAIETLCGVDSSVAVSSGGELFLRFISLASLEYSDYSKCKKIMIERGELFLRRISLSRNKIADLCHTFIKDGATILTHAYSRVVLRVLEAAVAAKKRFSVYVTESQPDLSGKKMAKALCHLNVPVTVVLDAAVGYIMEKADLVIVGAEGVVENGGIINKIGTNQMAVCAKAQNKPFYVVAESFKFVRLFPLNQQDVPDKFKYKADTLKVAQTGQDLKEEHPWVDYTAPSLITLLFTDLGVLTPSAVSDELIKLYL
UniProt Q13542: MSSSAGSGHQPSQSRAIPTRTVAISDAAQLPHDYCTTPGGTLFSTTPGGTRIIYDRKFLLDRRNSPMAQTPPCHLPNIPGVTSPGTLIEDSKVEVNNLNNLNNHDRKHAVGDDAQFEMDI
UniProt Q5NDL2: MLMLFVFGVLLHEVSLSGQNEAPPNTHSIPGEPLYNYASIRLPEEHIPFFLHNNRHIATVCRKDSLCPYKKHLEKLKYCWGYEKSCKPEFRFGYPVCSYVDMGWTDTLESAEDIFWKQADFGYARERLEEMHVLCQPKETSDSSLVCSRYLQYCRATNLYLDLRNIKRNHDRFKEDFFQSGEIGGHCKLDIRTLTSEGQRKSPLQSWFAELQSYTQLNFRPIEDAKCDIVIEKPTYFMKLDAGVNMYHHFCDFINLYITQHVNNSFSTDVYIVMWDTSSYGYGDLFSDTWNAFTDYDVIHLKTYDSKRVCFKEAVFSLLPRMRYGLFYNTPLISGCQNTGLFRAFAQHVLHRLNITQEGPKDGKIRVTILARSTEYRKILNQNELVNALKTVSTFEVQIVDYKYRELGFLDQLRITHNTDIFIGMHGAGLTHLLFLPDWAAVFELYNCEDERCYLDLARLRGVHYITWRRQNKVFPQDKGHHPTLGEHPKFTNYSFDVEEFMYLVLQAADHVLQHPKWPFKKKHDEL
UniProt P06733, whole entry, looked up: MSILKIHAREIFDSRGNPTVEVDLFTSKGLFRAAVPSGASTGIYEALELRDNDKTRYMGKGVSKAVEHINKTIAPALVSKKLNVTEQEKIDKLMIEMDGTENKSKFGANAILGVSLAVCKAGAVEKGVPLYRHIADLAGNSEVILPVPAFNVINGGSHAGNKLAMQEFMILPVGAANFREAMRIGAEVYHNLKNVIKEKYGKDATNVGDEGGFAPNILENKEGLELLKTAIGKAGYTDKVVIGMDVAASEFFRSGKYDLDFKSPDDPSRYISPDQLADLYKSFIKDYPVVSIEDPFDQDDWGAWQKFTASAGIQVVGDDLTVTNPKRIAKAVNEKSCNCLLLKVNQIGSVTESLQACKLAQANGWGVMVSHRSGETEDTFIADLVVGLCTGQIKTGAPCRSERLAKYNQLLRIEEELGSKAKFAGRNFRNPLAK
UniProt Q9NR50: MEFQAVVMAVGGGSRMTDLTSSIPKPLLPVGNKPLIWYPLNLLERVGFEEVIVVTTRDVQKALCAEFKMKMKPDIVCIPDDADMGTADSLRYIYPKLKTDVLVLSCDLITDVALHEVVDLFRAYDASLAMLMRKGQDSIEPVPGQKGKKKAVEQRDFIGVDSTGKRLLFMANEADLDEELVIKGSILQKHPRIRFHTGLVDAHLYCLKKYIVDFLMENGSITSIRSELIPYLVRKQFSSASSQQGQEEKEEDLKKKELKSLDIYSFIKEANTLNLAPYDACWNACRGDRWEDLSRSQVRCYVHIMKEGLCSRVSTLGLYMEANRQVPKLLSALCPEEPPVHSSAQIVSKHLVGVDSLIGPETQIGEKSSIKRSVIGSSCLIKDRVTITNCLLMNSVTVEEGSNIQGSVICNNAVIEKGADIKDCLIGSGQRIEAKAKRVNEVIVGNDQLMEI
UniProt Q9H9T3: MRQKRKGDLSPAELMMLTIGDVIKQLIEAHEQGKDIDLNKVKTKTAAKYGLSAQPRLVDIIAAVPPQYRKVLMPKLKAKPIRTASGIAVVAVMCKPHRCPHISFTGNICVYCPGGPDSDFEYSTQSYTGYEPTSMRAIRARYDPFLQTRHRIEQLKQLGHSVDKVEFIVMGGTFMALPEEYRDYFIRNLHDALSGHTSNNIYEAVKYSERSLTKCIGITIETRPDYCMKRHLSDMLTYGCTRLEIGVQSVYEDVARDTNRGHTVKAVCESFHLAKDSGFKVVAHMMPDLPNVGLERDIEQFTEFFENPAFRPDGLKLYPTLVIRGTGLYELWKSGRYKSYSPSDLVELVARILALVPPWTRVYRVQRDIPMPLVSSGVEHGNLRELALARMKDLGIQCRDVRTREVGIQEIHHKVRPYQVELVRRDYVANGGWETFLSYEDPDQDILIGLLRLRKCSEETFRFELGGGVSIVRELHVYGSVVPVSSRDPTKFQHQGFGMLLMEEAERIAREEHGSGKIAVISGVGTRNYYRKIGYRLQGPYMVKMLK

[2] = compound: CC1=C(C=C(C=C1)NC(=O)C2=CC(=CC=C2)N(C)C)NC(=O)C3=CC=C(C=C3)O
Summary of the method: as §1

[3] = compound: CC1=CC=C(C=C1)SC2=C3C=C(SC3=CN=C2)C(=O)N
Summary of the method: as §1

[4] = compound: CC1=NC(=CC=C1)C2=C(N=C(N2)C(C)(C)C)C3=CC4=NC=CN=C4C=C3
Summary of the method: as §1

Nexturastat A = compound: CCCCN(Cc1ccc(C(=O)NO)cc1)C(=O)Nc1ccccc1 [Nexturastat A]
Summary of the method: as §1

vemurafenib = compound: CCCS(=O)(=O)Nc1ccc(F)c(C(=O)c2c[nH]c3ncc(-c4ccc(Cl)cc4)cc23)c1F [vemurafenib]
Summary of the method: as §1

[5] = compound: CCCS(=O)(=O)Nc1ccc(F)c(C(=O)c2c[nH]c3ncc(Cl)cc23)c1F
Summary of the method: as §1

[6] = compound: CCCc1cc(C)[nH]c(=O)c1CNC(=O)c1cc(-c2ccnc(N3CCN(C)CC3)c2)cc2c1cnn2C(C)C
Summary of the method: as §1

givinostat = compound: CCN(CC)Cc1ccc2cc(COC(=O)Nc3ccc(C(=O)NO)cc3)ccc2c1 [givinostat]
Summary of the method: as §1

barasertib = compound: CCN(CCCOc1ccc2c(Nc3cc(CC(=O)Nc4cccc(F)c4)[nH]n3)ncnc2c1)CCOP(=O)(O)O [barasertib]
Summary of the method: as §1

Measured: log2 fold change

EIF3B isoform 2 (UniProt P55884)
inactive: [1] -0.025 | [2] -0.036 | [3] 0.013 | [4] -0.036 | Nexturastat A 0.176 | vemurafenib 0.012 | [5] 0.048 | [6] 0.055 | givinostat 0.069 | barasertib 0.045

EIF4A3 (UniProt P38919)
inactive: [1] 0.01 | [2] -0.018 | [3] -0.033 | [4] 0.002 | Nexturastat A -0.05 | vemurafenib 0.002 | [5] 0.002 | [6] -0.02 | givinostat 0.019 | barasertib 0.052

EIF2S3 (UniProt P41091)
inactive: [1] 0.02 | [2] 0 | [3] -0.006 | [4] -0.032 | Nexturastat A 0.102 | vemurafenib -0.029 | [5] 0.007 | [6] 0.05 | givinostat 0.028 | barasertib -0.033

EIF2B4 isoform 2 (UniProt Q9UI10)
inactive: [1] 0.019 | [2] 0.012 | [3] -0.012 | [4] -0.039 | Nexturastat A 0.045 | vemurafenib 0.024 | [5] 0.002 | [6] 0.028 | givinostat 0.045 | barasertib -0.001

EIF5B (UniProt O60841)
inactive: [1] 0.075 | [2] -0.007 | [3] 0.017 | [4] -0.021 | Nexturastat A 0.069 | vemurafenib 0.032 | [5] 0.054 | [6] 0.108 | givinostat 0.031 | barasertib 0.006

EHD2 (UniProt Q9NZN4)
inactive: [1] -0.037 | [2] -0.026 | [3] -0.007 | [4] 0.059 | Nexturastat A 0.003 | vemurafenib 0.029 | [5] 0.007 | [6] -0.024 | givinostat 0.024 | barasertib 0.03

EIF1AD (UniProt Q8N9N8)
inactive: [1] -0.021 | [2] -0.018 | [3] 0.029 | [4] 0.022 | Nexturastat A -0.171 | vemurafenib -0.004 | [5] 0.029 | [6] -0.022 | givinostat -0.024 | barasertib -0.003

ELP6 (UniProt Q0PNE2)
inactive: [1] 0.005 | [2] 0.02 | [3] 0.02 | [4] -0.007 | Nexturastat A 0.015 | vemurafenib -0.014 | [5] -0.001 | [6] -0.07 | givinostat -0.001 | barasertib -0.041

EHD1 (UniProt Q9H4M9)
inactive: [1] -0.006 | [2] 0.014 | [3] 0.018 | [4] 0.043 | Nexturastat A -0.071 | vemurafenib 0.036 | [5] 0.031 | [6] -0.017 | givinostat 0.033 | barasertib 0.014

ENOPH1 (UniProt Q9UHY7)
inactive: [1] 0.062 | [2] -0.017 | [3] 0.029 | [4] 0.008 | Nexturastat A 0.025 | vemurafenib 0.154 | [5] 0.096 | [6] 0.049 | givinostat 0.152 | barasertib 0.1

EIF3M (UniProt Q7L2H7)
inactive: [1] 0.056 | [2] -0.062 | [3] 0.029 | [4] 0.043 | Nexturastat A 0.057 | vemurafenib 0.077 | [5] 0.07 | [6] 0.035 | givinostat 0.026 | barasertib 0.015

ENDOG (UniProt Q14249)
inactive: [1] -0.012 | [2] -0.016 | [3] -0.038 | [4] 0.056 | Nexturastat A 0.004 | vemurafenib -0.002 | [5] 0.036 | [6] -0.003 | givinostat 0.033 | barasertib 0.04

EFTUD2 (UniProt Q15029)
inactive: [1] -0.009 | [2] 0.015 | [3] 0.021 | [4] -0.018 | Nexturastat A -0.027 | vemurafenib -0.015 | [5] 0.02 | [6] -0.024 | givinostat -0.045 | barasertib -0.044

EIF3J (UniProt O75822)
inactive: [1] 0.01 | [2] -0.026 | [3] -0.005 | [4] 0.039 | Nexturastat A -0.068 | vemurafenib 0.05 | [5] -0.022 | [6] 0.004 | givinostat 0.011 | barasertib 0.046

EFCAB14 (UniProt O75071)
inactive: [1] -0.034 | [2] 0.061 | [3] 0.022 | [4] -0.011 | Nexturastat A -0.032 | vemurafenib -0.049 | [5] 0.012 | [6] 0.023 | givinostat 0.054 | barasertib -0.01

ELOF1 (UniProt P60002)
inactive: [1] 0.061 | [2] -0.066 | [3] -0.084 | [4] 0.055 | Nexturastat A 0.073 | vemurafenib -0.065 | [5] -0.052 | [6] -0.046 | givinostat -0.424 | barasertib -0.018

EIF3I (UniProt Q13347)
inactive: [1] 0.014 | [2] -0.012 | [3] 0.027 | [4] -0.011 | Nexturastat A 0.127 | vemurafenib 0.049 | [5] 0.047 | [6] 0.09 | givinostat 0.092 | barasertib 0.075

EIF3F (UniProt O00303)
inactive: [1] 0.113 | [2] -0.041 | [3] -0.006 | [4] 0.023 | Nexturastat A 0.09 | vemurafenib 0.023 | [5] 0.104 | [6] 0.053 | givinostat 0.034 | barasertib 0.057

EIF2B1 (UniProt Q14232)
inactive: [1] 0.012 | [2] -0.012 | [3] 0.091 | [4] 0.021 | Nexturastat A -0.06 | vemurafenib 0.02 | [5] 0.008 | [6] 0.027 | givinostat -0.012 | barasertib -0.015

EMC2 (UniProt Q15006)
inactive: [1] -0.017 | [2] 0.018 | [3] -0.02 | [4] 0.113 | Nexturastat A -0.1 | vemurafenib 0.037 | [5] 0.013 | [6] -0.016 | givinostat -0.006 | barasertib 0

EEF1D isoform 2 (UniProt P29692)
inactive: [1] 0.039 | [2] -0.034 | [3] -0.012 | [4] -0.003 | Nexturastat A 0.029 | vemurafenib -0.044 | [5] 0.049 | [6] -0.004 | givinostat 0.038 | barasertib 0.02

EIF4EBP2 (UniProt Q13542)
inactive: [1] -0.009 | [2] -0.158 | [3] -0.032 | [4] -0.109 | Nexturastat A -0.075 | vemurafenib 0.197 | [5] 0.039 | [6] 0.009 | givinostat 0.029 | barasertib 0.071

EOGT (UniProt Q5NDL2)
inactive: [1] -0.043 | [2] -0.073 | [3] -0.088 | [4] -0.052 | Nexturastat A 0.033 | vemurafenib -0.05 | [5] -0.098 | [6] -0.043 | givinostat 0.02 | barasertib -0.026

ENO1 isoform 2 (UniProt P06733)
inactive: [1] -0.22 | [2] -0.033 | [3] 0.024 | [4] -0.031 | Nexturastat A 0.307 | vemurafenib -0.049 | [5] -0.012 | [6] -0.011 | givinostat 0.088 | barasertib 0

EEF1A2 (UniProt Q05639)
inactive: [1] -0.024 | [2] 0.002 | [3] 0.009 | [4] 0.011 | Nexturastat A -0.069 | vemurafenib 0.026 | [5] 0 | [6] -0.035 | givinostat -0.011 | barasertib 0.007

ELP5 isoform 4 (UniProt Q8TE02)
inactive: [1] -0.062 | [2] 0.013 | [3] -0.076 | [4] -0.025 | Nexturastat A 0.087 | vemurafenib -0.049 | [5] -0.074 | [6] -0.084 | givinostat 0.011 | barasertib -0.012

EIF2B3 (UniProt Q9NR50)
inactive: [1] 0.016 | [2] -0.009 | [3] -0.004 | [4] 0.012 | Nexturastat A 0.12 | vemurafenib 0.008 | [5] 0.032 | [6] 0.038 | givinostat 0.007 | barasertib -0.008

EIF2S1 (UniProt P05198)
inactive: [1] 0.003 | [2] -0.011 | [3] -0.018 | [4] -0.004 | Nexturastat A 0.047 | vemurafenib -0.029 | [5] -0.051 | [6] 0.01 | givinostat 0.011 | barasertib -0.022

Copied from the results shown (7 entries):
EFCAB14 (UniProt O75071)
inactive: [1] -0.034 | [2] 0.061 | [3] 0.022 | [4] -0.011 | Nexturastat A -0.032 | vemurafenib -0.049 | [5] 0.012 | [6] 0.023 | givinostat 0.054 | barasertib -0.01

ELOF1 (UniProt P60002)
inactive: [1] 0.061 | [2] -0.066 | [3] -0.084 | [4] 0.055 | Nexturastat A 0.073 | vemurafenib -0.065 | [5] -0.052 | [6] -0.046 | givinostat -0.424 | barasertib -0.018

EIF3I (UniProt Q13347)
inactive: [1] 0.014 | [2] -0.012 | [3] 0.027 | [4] -0.011 | Nexturastat A 0.127 | vemurafenib 0.049 | [5] 0.047 | [6] 0.09 | givinostat 0.092 | barasertib 0.075

EIF3F (UniProt O00303)
inactive: [1] 0.113 | [2] -0.041 | [3] -0.006 | [4] 0.023 | Nexturastat A 0.09 | vemurafenib 0.023 | [5] 0.104 | [6] 0.053 | givinostat 0.034 | barasertib 0.057

EIF2B1 (UniProt Q14232)
inactive: [1] 0.012 | [2] -0.012 | [3] 0.091 | [4] 0.021 | Nexturastat A -0.06 | vemurafenib 0.02 | [5] 0.008 | [6] 0.027 | givinostat -0.012 | barasertib -0.015

EMC2 (UniProt Q15006)
inactive: [1] -0.017 | [2] 0.018 | [3] -0.02 | [4] 0.113 | Nexturastat A -0.1 | vemurafenib 0.037 | [5] 0.013 | [6] -0.016 | givinostat -0.006 | barasertib 0

EEF1D isoform 2 (UniProt P29692)
inactive: [1] 0.039 | [2] -0.034 | [3] -0.012 | [4] -0.003 | Nexturastat A 0.029 | vemurafenib -0.044 | [5] 0.049 | [6] -0.004 | givinostat 0.038 | barasertib 0.02

Following part:

EMC6 (UniProt Q9BV81)
inactive: [1] -0.01 | [2] -0.025 | [3] 0.034 | [4] 0.001 | Nexturastat A 0.047 | vemurafenib 0.018 | [5] 0.076 | [6] 0.001 | givinostat -0.108 | barasertib 0.049

ELP3 (UniProt Q9H9T3)
inactive: [1] 0.006 | [2] -0.016 | [3] 0.042 | [4] 0.013 | Nexturastat A -0.009 | vemurafenib -0.002 | [5] 0.007 | [6] -0.008 | givinostat -0.03 | barasertib 0.016

— the supplement of paper PMC10849652
